No constants are given. Whether binding was seen depends on the method and setting. Some results given as binding are weak or reduced against the parent protein; the word gives no strength. Values belong to the binder of their own block, whether it stands above or below them.
Target: CYNO-TNFR2-His (cynomolgus monkey TNFR2, His tag) (cynomolgus monkey)
Test: BLI (ForteBio), summary of Table 2

binding: binds
B2: chimeric antibody 72G8 (antibody, human IgG1, kappa, V domains shown)
VH: EVQLQQSGAELARPGASVMLSCKASGYTFTSYWMQWLKQRPGQGLEWIGAIYPGDGDTRYTQKFKGKATLTADKSSSTAYMQLSSLASEDSAVYYCVRDDGLYYAMDYWGQGTSVTVSS
VL: QIVLTQSPTIMSASLGERVTMTCTASSSVSSSYLHWYQQKPGSSPKLWIYSTSNLASGVPARFSGSGSGTSYSLTISSMEAEDAATYYCHQYHRSPPTFGGGTKLEIKR

binding: binds
B3: chimeric antibody 69B1 (antibody, human IgG1, kappa, V domains shown)
VH: QIQLVQSGPELKKPGETVKISCKASGYTFTDYSMNWVKQAPGKGLKWMGWLNTETGEPIYADDFKGRFVFSLETSASTAYLEINNLNDEDTATYFCAREAIYYGTSYVLDYWGQGTSVTVSS
VL: DIVLTQSPASLAVSLGQRATISCRASESVEYYGTNFMQWYQQKPGQPPKLLIYSASNVESGVPARFSGSGSGTDFSLNIHPVEEDDIAVYFCQQSRKDPSTFGEGTNLEIKR

The remaining lines, values behind:

B1: positive control antibody OPI (humanized antibody SBT-002e in WO 2017083525) (antibody, V domains shown)
VH: QVTLKESGPALVKPTQTLTLTCTFSGFSLSTSGMGVGWIRQPPGKALEWLAHIWWDDDKFYNPSLKSRLTISKDTSKNQVVLTMTNMDPVDTATYYCARLTGTRYFDYWGQGTTVTVSS
VL: DVQMTQSPSSLSASVGDRVTITCKASQDINKFIAWYQQKPGKAPKLLIHYTSTLQPGIPSRFSGSGSGRDYTFTISSLQPEDIATYYCLQYGNLWTFGGGTKVEIK
notes: also called Benchmark OPI
binding: binds

B4: chimeric antibody 3C4 (antibody, human IgG1, kappa, V domains shown)
VH: QVQLQQSGPELVKPGASVTISCKASDYSFTNYYIHWVKQRPGQGLEWIGWIYPGNVITKYHEKFKGKAILTADTSSTTAYMQLNSLTSEDSAVYFCARSRATGYFDYWGQGTTLTVSS
VL: DIQMTQTTSSLSASLGDRVTISCRASQDIRNYLNWFQQKPDGTIKLLIYYTSRLHSGVPSRFSGSGSGTDYSLTISNLEQEDMATYFCQQFNTLPWTFGGGTKLEIKR
binding: binds
